Measurements reported in PubChem BioAssay AID743121 (NCATS, 2013).

Test: 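Knock-downs that sensitise breast cancer cells to camptothecin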 (primary screen)
Cells: MDA-MB-231 cells, a human breast cancer line
Reagent: single siRNA against human genes, 20 nM siRNA (0.8 pmol per well)
Time to read-out: 120 h (drug added 48 h after transfection, read 72 h later)
Challenge: camptothecin 20 nM (about EC30) for 72 h; vehicle 0.1% DMSO in parallel plates
Read-out: 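Cell viability by ATP luminescence (CellTiter-Glo) as % of non-targeting siRNA wells, and the log2 ratio of viability without drug over viability with camptothecin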
Scale: log2 vehicle/camptothecin viability: higher = stronger sensitisation to camptothecin; viability with camptothecin and viability without drug: higher = more viable cells
Call rule: 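Active genes have an RSA gene-level p-value below 0.001, computed from the ratios of their separate siRNAs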
Shown is an unselected part of about 26,000 reagents. Over the whole deposit, 167 (0.63%) got an active call. 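Calls are per gene from RSA p-values that are not deposited; an individual active-marked siRNA can sensitise only weakly.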 Entries without a mark were called inactive. Reagents against one gene are numbered here.

gene symbol	siRNA no.	log2 vehicle/camptothecin viability	viability with camptothecin (% of control)	viability without drug (% of control)
NKX2-8 (GeneID 26257)	1	-0.154	90.2	81
NKX2-8 (GeneID 26257)	2	0.268	63.3	76.2
NKX2-8 (GeneID 26257)	3	-0.123	85.8	78.8
NKX2-8 (GeneID 26257)	4	-0.173	74.8	66.3
TREX1 (GeneID 11277)	1	0.284	64.8	79
TREX1 (GeneID 11277)	2	-0.073	66.1	62.8
TREX1 (GeneID 11277)	3	0.103	92.4	99.2
MAP4K4 (GeneID 9448)	1	-0.07	46.7	44.5
MAP4K4 (GeneID 9448)	2	-0.32	117	94.1
MAP4K4 (GeneID 9448)	3	0.169	49.9	56.1
MAP4K4 (GeneID 9448)	4	-0.202	80.8	70.2
BCKDHA (GeneID 593)	1	-0.485	79.8	57
BCKDHA (GeneID 593)	2	0.443	50.3	68.4
BCKDHA (GeneID 593)	3	-0.29	72.1	58.9
BCKDHA (GeneID 593)	4	-0.322	77.1	61.6

Next part (2 carried over from the part before).
gene symbol	siRNA no.	log2 vehicle/camptothecin viability	viability with camptothecin (% of control)	viability without drug (% of control)
BCKDHA (GeneID 593)	3	-0.29	72.1	58.9
BCKDHA (GeneID 593)	4	-0.322	77.1	61.6
CDC42 (GeneID 998)	1	0.396	47.8	62.9
CDC42 (GeneID 998)	2	-0.227	75.2	64.3
CDC42 (GeneID 998)	3	-0.534	74.7	51.6
CDC42 (GeneID 998)	4	0.119	91.8	99.7
CDC42 (GeneID 998)	5	-0.03	93.4	91.4
CDC42 (GeneID 998)	6	-0.26	53.3	44.5
CDC42 (GeneID 998)	7	0.195	45	51.5
CDC42 (GeneID 998)	8	0.12	65.3	71
CPN1 (GeneID 1369)	1	0.0718	91.4	96
CPN1 (GeneID 1369)	2	0.195	91.5	105
CPN1 (GeneID 1369)	3	0.362	51.2	65.8
CPN1 (GeneID 1369)	4	0.0285	76.9	78.4
ITPR1 (GeneID 3708)	1	0.0958	31.4	33.5
ITPR1 (GeneID 3708)	2	-0.207	90.5	78.4
ITPR1 (GeneID 3708)	3	0.274	64.7	78.2
ITPR1 (GeneID 3708)	4	-0.0693	81	77.2
